Test results from PubChem BioAssay.
Where “and” joins values, the source holds several entries; their conditions need not be identical. Equal entries are not always repeated. This is one part of the list. Shown are side measurements of this screen, not its main read-out; they come without a call. For some assays here: Compounds called inactive in the main read-out are mostly missing here.

Chains of the proteins cited; added tags and fusions are not shown.
UniProt P42858, whole entry, looked up: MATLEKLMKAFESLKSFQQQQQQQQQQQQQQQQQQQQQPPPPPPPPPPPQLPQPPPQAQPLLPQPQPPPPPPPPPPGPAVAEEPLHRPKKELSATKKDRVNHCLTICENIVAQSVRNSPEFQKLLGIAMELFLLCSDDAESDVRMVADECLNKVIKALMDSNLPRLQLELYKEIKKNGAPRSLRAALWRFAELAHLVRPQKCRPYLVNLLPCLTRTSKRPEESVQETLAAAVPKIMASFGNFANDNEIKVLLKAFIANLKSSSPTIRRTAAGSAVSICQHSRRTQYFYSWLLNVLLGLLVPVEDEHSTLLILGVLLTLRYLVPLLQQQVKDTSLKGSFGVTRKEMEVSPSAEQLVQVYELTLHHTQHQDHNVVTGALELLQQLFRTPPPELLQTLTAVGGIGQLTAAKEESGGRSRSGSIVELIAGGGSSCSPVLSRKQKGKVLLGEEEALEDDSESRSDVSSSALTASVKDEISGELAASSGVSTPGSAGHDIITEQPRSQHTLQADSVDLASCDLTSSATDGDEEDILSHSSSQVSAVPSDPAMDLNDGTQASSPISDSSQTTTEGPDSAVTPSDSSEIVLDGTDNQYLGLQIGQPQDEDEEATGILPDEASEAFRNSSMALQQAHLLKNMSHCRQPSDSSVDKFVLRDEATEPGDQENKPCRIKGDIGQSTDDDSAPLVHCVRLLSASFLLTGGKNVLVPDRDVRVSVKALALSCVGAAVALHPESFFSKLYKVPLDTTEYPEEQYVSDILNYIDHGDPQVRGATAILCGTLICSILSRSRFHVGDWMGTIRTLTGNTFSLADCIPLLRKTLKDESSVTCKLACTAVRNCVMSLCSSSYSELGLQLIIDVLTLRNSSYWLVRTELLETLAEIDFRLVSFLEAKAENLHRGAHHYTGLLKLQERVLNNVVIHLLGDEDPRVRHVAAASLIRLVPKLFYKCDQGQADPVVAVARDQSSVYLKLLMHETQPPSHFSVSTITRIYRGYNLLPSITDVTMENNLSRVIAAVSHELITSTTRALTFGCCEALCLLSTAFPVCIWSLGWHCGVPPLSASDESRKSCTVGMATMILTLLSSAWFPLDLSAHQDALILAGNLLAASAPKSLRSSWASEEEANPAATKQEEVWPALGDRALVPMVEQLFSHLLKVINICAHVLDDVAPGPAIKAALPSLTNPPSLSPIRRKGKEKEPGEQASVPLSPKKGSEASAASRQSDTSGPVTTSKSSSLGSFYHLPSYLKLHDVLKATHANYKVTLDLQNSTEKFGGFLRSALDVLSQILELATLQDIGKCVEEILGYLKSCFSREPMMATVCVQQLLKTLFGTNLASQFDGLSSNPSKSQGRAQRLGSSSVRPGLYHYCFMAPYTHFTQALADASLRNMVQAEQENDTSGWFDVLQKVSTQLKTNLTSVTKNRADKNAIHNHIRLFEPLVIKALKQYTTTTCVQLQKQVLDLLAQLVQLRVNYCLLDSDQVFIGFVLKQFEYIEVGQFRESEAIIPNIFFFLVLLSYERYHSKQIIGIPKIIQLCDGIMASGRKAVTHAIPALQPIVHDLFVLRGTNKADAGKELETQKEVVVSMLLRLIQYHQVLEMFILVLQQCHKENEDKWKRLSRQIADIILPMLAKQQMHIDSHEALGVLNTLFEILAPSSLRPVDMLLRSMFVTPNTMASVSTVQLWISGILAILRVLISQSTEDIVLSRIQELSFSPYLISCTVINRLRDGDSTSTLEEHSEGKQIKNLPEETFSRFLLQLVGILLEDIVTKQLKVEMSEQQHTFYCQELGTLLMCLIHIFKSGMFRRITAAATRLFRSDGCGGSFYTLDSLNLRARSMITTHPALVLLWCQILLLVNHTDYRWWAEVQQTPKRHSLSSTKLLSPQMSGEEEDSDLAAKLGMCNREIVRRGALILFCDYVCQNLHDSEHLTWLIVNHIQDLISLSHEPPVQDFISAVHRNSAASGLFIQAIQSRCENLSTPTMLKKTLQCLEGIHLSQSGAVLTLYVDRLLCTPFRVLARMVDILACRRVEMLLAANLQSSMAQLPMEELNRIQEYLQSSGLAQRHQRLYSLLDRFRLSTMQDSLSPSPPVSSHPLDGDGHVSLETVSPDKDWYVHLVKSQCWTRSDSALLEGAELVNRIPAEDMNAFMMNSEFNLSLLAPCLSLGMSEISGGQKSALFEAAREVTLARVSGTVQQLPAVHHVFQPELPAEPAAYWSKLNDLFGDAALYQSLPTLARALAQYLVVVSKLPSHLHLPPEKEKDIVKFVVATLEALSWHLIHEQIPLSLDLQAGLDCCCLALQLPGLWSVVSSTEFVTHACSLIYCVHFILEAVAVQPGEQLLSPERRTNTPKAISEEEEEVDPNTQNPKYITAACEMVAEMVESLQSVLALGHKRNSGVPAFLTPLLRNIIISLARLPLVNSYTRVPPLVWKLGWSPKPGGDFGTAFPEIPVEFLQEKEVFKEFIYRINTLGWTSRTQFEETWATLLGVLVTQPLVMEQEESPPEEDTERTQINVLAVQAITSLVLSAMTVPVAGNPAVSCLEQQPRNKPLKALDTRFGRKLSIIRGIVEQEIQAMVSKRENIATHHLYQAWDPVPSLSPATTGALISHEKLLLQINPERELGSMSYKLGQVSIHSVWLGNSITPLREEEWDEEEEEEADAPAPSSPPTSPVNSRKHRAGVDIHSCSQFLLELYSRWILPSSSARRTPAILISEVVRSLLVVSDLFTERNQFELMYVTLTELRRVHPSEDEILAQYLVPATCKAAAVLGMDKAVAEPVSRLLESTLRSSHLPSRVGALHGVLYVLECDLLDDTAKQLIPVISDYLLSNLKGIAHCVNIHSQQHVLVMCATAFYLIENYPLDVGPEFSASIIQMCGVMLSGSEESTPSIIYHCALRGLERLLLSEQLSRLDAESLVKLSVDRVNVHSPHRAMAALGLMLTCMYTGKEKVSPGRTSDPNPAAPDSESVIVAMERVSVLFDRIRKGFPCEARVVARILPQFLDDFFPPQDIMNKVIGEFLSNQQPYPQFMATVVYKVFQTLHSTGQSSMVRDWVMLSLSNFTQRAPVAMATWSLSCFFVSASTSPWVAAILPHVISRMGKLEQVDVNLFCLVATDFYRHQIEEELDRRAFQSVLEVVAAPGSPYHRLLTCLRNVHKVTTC

Tests used:
[1] = PubChem AID 1586; conditions: yeast two-hybrid polyglutamine protein interaction, reporter readout; measured here: averaged growth delta OD
[2] = selective SMN2 exon splicing luciferase activators – cell-based, SMN2/SMN1 luciferase reporters (AID 1598); conditions: SMN2 vs SMN1 luciferase splicing reporter cells, at 10 µM; SMN1 luciferase ratio: measured here: SMN1 luciferase reporter average; SMN2 luciferase ratio: measured here: SMN2 luciferase reporter average, stronger effect = higher value
[3] = rescue of PC12 cells from polyQ htt toxicity – LDH release (AID 1610); conditions: PC12 mutant huntingtin toxicity, final LDH at 4 uM, stronger effect = lower value
[4] = target: Huntingtin (Homo sapiens) (UniProt P42858); experiment: mutant huntingtin aggregation blockers – QA1, dose response (AID 1584); conditions: in vitro mutant huntingtin aggregation assay; confirmation test; at 10 µM; stronger effect = lower value

Compound	signal change (36 h minus 0 h) [1]	SMN1 luciferase ratio [2]	SMN2 luciferase ratio [2]	normalised LDH release [3]	aggregation ratio [4]
C[C@@H]1C[C@@H]([C@H](O)CC2CC(=O)NC(=O)C2)C(=O)[C@@H](C)C1	0.0209	0.28	0.42		
CCCCCc1cc(O)c2c(c1)OC(C)(C)c1ccc(C)cc1-2	0.385	0.85	0.79		
C[C@@]1(C(=O)O)CC[C@]2(C)CC[C@]3(C)C4=CC=C5C=C(O)C(=O)C=C5[C@]4(C)CC[C@@]3(C)[C@@H]2C1	0.0245	0.05	0.09		
C=C[C@H]1CN2CC[C@H]1C[C@@H]2[C@H](O)c1ccnc2ccccc12	0.0862	0.83	0.84		
Clc1ccc(CSC(Cn2ccnc2)c2ccc(Cl)cc2Cl)cc1 (stereo not drawn)	0.0567	0.9	1	0.904	
CC(C)=CCCC1(C)C=Cc2c(O)c3c(c(CC=C(C)C)c2O1)OC12C(=CC4CC1C(C)(C)OC2(C/C=C(/C)C(=O)O)C4=O)C3=O (stereo not drawn)	0.264	0.37	0.52		
COC12CC[C@@]3(C[C@@H]1C(C)(O)C(C)(C)C)[C@H]1Cc4ccc(O)c5c4[C@@]3(CCN1CC1CC1)[C@H]2O5 (stereo partly drawn)	0.169	0.91	0.93		
CN1C(=O)CCS(=O)(=O)C1c1ccc(Cl)cc1 (stereo not drawn)	0.33	0.94	0.98	1.04	
CNC1(c2ccccc2Cl)CCCCC1=O (stereo not drawn)	0.192	0.91	1.06	0.958	1.05
COc1cc([C@@H]2c3cc4c(cc3[C@H](O)[C@H]3COC(=O)[C@H]23)OCO4)cc(OC)c1OC	0.212	1.4	1.35	0.945	
Oc1cccc2cccnc12	0.0959	0.52	0.53		
CN1C(=O)CN=C(c2ccccc2)c2cc(Cl)ccc21	0.241	0.76	0.96	0.967	
O=C1C=C2C(=CCOC2O)O1 (stereo not drawn)	0.119				
CC[C@H]1C(=O)OC[C@@H]1Cc1cccn1C	0.0609	0.99	0.86	0.957	1
CC[n+]1c(-c2ccccc2)c2cc(N)ccc2c2ccc(N)cc21	0.0381	0.3	0.42		
O=c1[nH]c2ccccc2n1C1CCN(CCCC(c2ccc(F)cc2)c2ccc(F)cc2)CC1	0.0898	0.92	0.92		1.03
CCC1(c2ccc(N)cc2)CCC(=O)NC1=O (stereo not drawn)	0.421	0.93	0.92	1.03	0.999
CO[C@@H]1C[C@@H](C[C@H]2CC[C@H](C)[C@H]([C@@H](C)C(=O)O)O2)O[C@]2(O[C@](C)([C@H]3CC[C@@](C)(C4O[C@@H](C5O[C@@](O)(CO)[C@H](C)C[C@@H]5C)C[C@@H]4C)O3)C[C@H]2C)[C@@H]1C (stereo partly drawn)	-0.0153	0.41	0.54		
O=C(O)c1ccccc1-c1c2cc(Br)c(=O)cc-2oc2[c]([Hg])c(O)c(Br)cc12	-0.00595	0.95	0.99	0.59	0.814
NCCc1cc(O)c(O)cc1O	0.194	0.86	0.83	0.925	1.04
ClC1=C(Cl)C2(Cl)C3C4CC(C5OC45)C3C1(Cl)C2(Cl)Cl (stereo not drawn)	0.0853	0.92	1.08	0.818	0.99
COc1ccc2c(c1)[C@]13CCCC[C@H]1[C@H](C2)N(C)CC3	0.179	0.82	0.93	0.585	
CCN1C[C@@]2(COC)C3[C@@H](OC)[C@H]4[C@@H]1[C@]3(C(OC)C[C@H]2O)C1C[C@@]2(O)[C@H](OC(=O)c3ccccc3)C1[C@]4(OC(C)=O)[C@@H](O)[C@@H]2OC (stereo partly drawn)	0.131	0.92	0.88	0.961	

Compound	signal change (36 h minus 0 h) [1]	SMN1 luciferase ratio [2]	SMN2 luciferase ratio [2]	normalised LDH release [3]	aggregation ratio [4]
CN1CC[C@]23c4c5ccc(O)c4O[C@H]2C(=O)CCC3[C@H]1C5 (stereo partly drawn)	0.468	0.88	0.88	0.931	
CNc1ccc2oc(C[C@@H]3OC4(CC[C@@H]3C)O[C@H](C(C)C(=O)c3ccc[nH]3)[C@H](C)C[C@H]4C)nc2c1C(=O)O (stereo partly drawn)	0.0676	0.78	0.89		0.897
CCCCCc1cc(O)c2c(c1)OC(C)(C)C1CC=C(C)CC21 (stereo not drawn)	0.284	0.95	1.02		
C=C(C)[C@H]1Cc2c(ccc3c2O[C@@H]2COc4cc(OC)c(OC)cc4[C@@H]2C3=O)O1	0.26	0.36	0.39	0.497	
O=c1c2ccccc2[se]n1-c1ccccc1	0.142	1.06	0.91		
CCCCC[C@H]1C(=O)O[C@H](C)[C@H](NC(=O)c2cccc(NC=O)c2O)C(=O)O[C@@H](C)[C@@H]1OC(=O)CC(C)C	-0.201	0.32	0.34	0.406	1.04
CC(=O)Oc1ccc(Cl)c2cccnc12	0.158	0.83	0.89		
CCCCCc1cc(O)c2c(c1)OC(C)(C)C1CCC(C)=CC21 (stereo not drawn)	0.29	0.96	0.92		
CCC(C)[C@H]1O[C@]2(C=C[C@@H]1C)C[C@@H]1C[C@@H](C/C=C(\C)[C@@H](OC3C[C@H](OC)C(O[C@H]4C[C@H](OC)[C@@H](O)[C@H](C)O4)[C@H](C)O3)[C@@H](C)/C=C/C=C3\CO[C@@H]4[C@H](O)C(C)=C[C@@H](C(=O)O1)[C@]34O)O2 (stereo partly drawn)	0.0025	0.88	0.87	1.03	
CN(C)[C@@H]1C(=O)C(C(N)=O)=C(O)[C@@]2(O)C(=O)C3=C(O)c4c(O)cccc4[C@@](C)(O)[C@H]3[C@H](O)[C@@H]12	0.129	0.89	0.95		0.982
C=CCc1ccc2c(c1)OCO2	0.478	0.85	0.92	1.11	
O=P1(N(CCCl)CCCl)NCCCO1 (stereo not drawn)	0.159	0.92	0.87	1.02	
C[C@H]1C(=O)O[C@@H]2CCN3CC=C(COC(=O)[C@](C)(O)[C@]1(C)O)[C@H]23	0.16	0.97	0.93	0.427	
NC1C[C@H]1c1ccccc1 (stereo partly drawn)	0.111	0.91	0.97	0.931	
Oc1ccc(Cl)cc1	0.0326	1	0.94	0.559	
N[C@@H](Cc1ccc(N(CCCl)CCCl)cc1)C(=O)O	0.0397	0.54	0.6	1.05	
O=C1CC2OCC=C3CN4CC[C@]56c7ccccc7N1C5[C@H]2[C@H]3CC46 (stereo partly drawn)	0.2	0.89	0.88	0.617	
CCCCCCCCCCCCCCCC[n+]1ccccc1	-0.0068	0.23	0.33	0.845	
O=C1C=CC(=O)c2c(O)cccc21	0.393	0.92	0.89	1.05	
CN1C2CCC1C(C(=O)O)C(OC(=O)c1ccccc1)C2 (stereo not drawn)	0.219	0.89	0.95	0.968	
CC(CCc1ccccc1)NC(C)C(O)c1ccc(O)cc1 (stereo not drawn)	0.044	0.9	0.83	1.2	
NCCc1c[nH]c2ccccc12	0.164	0.9	0.9	0.908	
CC[C@@H]1C(=O)OC[C@@H]1Cc1cncn1C	0.0284	0.88	0.77	0.988	

Some of the entries so far, with each value named.
O=C1C=CC(=O)c2c(O)cccc21
  signal change (36 h minus 0 h) [1]: 0.393; SMN1 luciferase ratio [2]: 0.92; SMN2 luciferase ratio [2]: 0.89; normalised LDH release [3]: 1.05
CN1C2CCC1C(C(=O)O)C(OC(=O)c1ccccc1)C2 (stereo not drawn)
  signal change (36 h minus 0 h) [1]: 0.219; SMN1 luciferase ratio [2]: 0.89; SMN2 luciferase ratio [2]: 0.95; normalised LDH release [3]: 0.968
CC(CCc1ccccc1)NC(C)C(O)c1ccc(O)cc1 (stereo not drawn)
  signal change (36 h minus 0 h) [1]: 0.044; SMN1 luciferase ratio [2]: 0.9; SMN2 luciferase ratio [2]: 0.83; normalised LDH release [3]: 1.2
NCCc1c[nH]c2ccccc12
  signal change (36 h minus 0 h) [1]: 0.164; SMN1 luciferase ratio [2]: 0.9; SMN2 luciferase ratio [2]: 0.9; normalised LDH release [3]: 0.908

Remaining list, next part

Compound	signal change (36 h minus 0 h) [1]	SMN1 luciferase ratio [2]	SMN2 luciferase ratio [2]	normalised LDH release [3]	aggregation ratio [4]
C/C=C(/C)C(=O)O[C@H]1CC[C@@]2(C)[C@@H]3CC[C@H]4[C@]5(O)C[C@H](O)[C@@]6(O)[C@@H](CN7C[C@@H](C)CC[C@H]7[C@@]6(C)O)[C@]5(O)C[C@@]42O[C@]13O	0.121	0.92	0.9	0.818	
c1ccc2c(c1)sc1ccccc12	0.184	0.89	0.86	0.912	
C[n+]1cc2c3c(ccc2c2ccc4cc5c(cc4c21)OCO5)OCO3	0.0891	0.98	0.9	0.828	
O=c1oc2ccccc2c(O)c1Cc1c(O)c2ccccc2oc1=O	0.124	0.97	1.05	1.16	
Oc1ccc2c3c1OC1[C@@H](O)CC[C@@]4(O)[C@@H](C2)N(CC2CCC2)CC[C@]314 (stereo partly drawn)	0.0847	0.89	0.86	0.899	
NCCc1ccc(O)cc1	0.0363	0.89	0.93	1.43	
CC[C@@]1(C2O[C@@H](C3O[C@@](O)(CC)[C@H](C)C[C@@H]3C)C[C@@H]2C)CC[C@H]([C@]2(C)CCC3(C[C@H](O)[C@@H](C)[C@@H]([C@H](C)[C@@H](OC)[C@H](C)C(=O)O)O3)O2)O1 (stereo partly drawn)	0.203	0.7	0.71	0.811	
O=c1[nH]oc2c1CCNC2	0.185	0.88	0.91	0.871	
COc1ccc2c3c1O[C@H]1[C@@H](O)C=CC4[C@@H](C2)N(C)CC[C@@]341 (stereo partly drawn)	0.199	0.82	0.93	0.904	
C=C[C@H]1CN2CC[C@H]1C[C@H]2[C@H](O)c1ccnc2ccccc12	0.165	0.96	0.96	0.965	
C[C@H](N)[C@H](O)c1ccc(O)c(O)c1	0.0836	0.94	0.93	0.796	
O=C(CCCN1CCC2(CC1)C(=O)NCN2c1ccccc1)c1ccc(F)cc1	0.389	1.01	0.86	1.29	
CC(Cc1ccc(O)cc1)NCC(O)c1cc(O)cc(O)c1 (stereo not drawn)	0.115	0.93	0.92	0.739	
CC[C@@H]1[C@@H](O)N2C3C[C@H]1C1C(O)[C@]4(C[C@@H]12)c1ccccc1N(C)[C@@H]34 (stereo partly drawn)	0.23	0.87	0.82	1.04	
CN1CC(CNC(=O)OCc2ccccc2)CC2c3cccc4c3c(cn4C)CC21 (stereo not drawn)	0.124	0.81	0.88	0.659	
CCC1(CC)C(=O)C=CNC1=O	0.153 and 0.234	0.88 and 1	1 and 0.96	0.874 and 1.29	
C=CCN1CC[C@]23c4c5ccc(O)c4OC2C(=O)CC[C@@]3(O)[C@H]1C5 (stereo partly drawn)	0.114	0.9	0.91	1.03	
CNC(C)C(O)c1ccccc1 (stereo not drawn)	0.126 and 0.0939	0.98 and 1.03	1.01 and 1.02	0.526 and 1.03	
CCOC(=O)C1C(OC(=O)c2ccccc2)CC2CCC1N2C (stereo not drawn)	0.378	1	0.94	0.816	
Cc1cccc(C)c1NC1=NCCCS1	0.134	0.91	0.79	0.482	
CC[N+]1(C)CCCC(OC(=O)C(O)(c2ccccc2)c2ccccc2)C1 (stereo not drawn)	0.0678	0.89	0.88	0.964	
CC1CC[C@@]2(NC1)OC1CC3C4CC=C5CC(O)CCC5(C)C4CCC3(C)C1[C@@H]2C (stereo partly drawn)	0.0693	0.94	1.01	0.805	
